No constants are given. Whether binding was seen depends on the method and setting. For some of these results: Binding calls can cover weak binding; strength is not graded here. For some of these results: Where a sequence is shown, tags or fusion partners need not be part of it. Each block holds one molecule with its values, some of them ahead of it.
Columns and labels:
[1] = molecular target: T1, GAL4 BD-TbPEX11_(1-89aa) (Trypanosoma brucei) (UniProt O60944); assay: two-hybrid; GAL4 BD-TbPEX11 constructs (pPC97) and GAL4 AD-TbPEX19 (pPC86) co-transformed in WT PCY2; colony-lift filter β-galactosidase assay and liquid ONPG assay, three replicates
T1 sequence: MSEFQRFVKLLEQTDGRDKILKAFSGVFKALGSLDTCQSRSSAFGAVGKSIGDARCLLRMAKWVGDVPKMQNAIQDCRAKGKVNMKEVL

[2] = molecular target: T2, GAL4 BD-TbPEX11_(1-218aa) (Trypanosoma brucei) (UniProt O60944); assay: as above
T2 sequence: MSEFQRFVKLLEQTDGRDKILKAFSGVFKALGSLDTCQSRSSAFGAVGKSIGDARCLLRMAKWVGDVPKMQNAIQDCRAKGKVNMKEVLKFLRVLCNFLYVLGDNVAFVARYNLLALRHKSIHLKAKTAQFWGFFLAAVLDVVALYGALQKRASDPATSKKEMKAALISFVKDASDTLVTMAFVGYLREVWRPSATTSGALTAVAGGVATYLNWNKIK

[3] = molecular target: T3, GAL4 BD-TbPEX11_(1-76aa) (Trypanosoma brucei) (UniProt O60944); assay: as above
T3 sequence: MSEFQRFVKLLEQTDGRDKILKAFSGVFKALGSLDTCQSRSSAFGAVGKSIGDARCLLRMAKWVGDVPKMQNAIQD

[4] = molecular target: T4, GAL4 BD-TbPEX11_(90-218aa) (Trypanosoma brucei) (UniProt O60944); assay: as above
T4 sequence: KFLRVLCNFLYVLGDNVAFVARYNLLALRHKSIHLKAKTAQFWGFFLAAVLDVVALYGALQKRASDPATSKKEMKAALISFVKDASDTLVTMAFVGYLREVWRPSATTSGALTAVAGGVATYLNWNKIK

[5] = molecular target: T5, TbPEX11 array peptides of BS1 (aa 13-35) (Trypanosoma brucei); assay: peptide or protein array; 15-mer peptides (2 aa shift) on a cellulose membrane; probed with 1 µM GST fusion or GST in TBS + 3% BSA + 0.05% Tween-20, 1 h at 4°C; detected with anti-GST antibody and chemiluminescence; at least three consecutive spots counted as a potential site; both purified
T5 sequence (peptide): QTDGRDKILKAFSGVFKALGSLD

[6] = molecular target: T6, TbPEX11 array peptides of BS2 (aa 77-99) (Trypanosoma brucei); assay: as above
T6 sequence (peptide): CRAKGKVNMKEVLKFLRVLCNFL

[7] = molecular target: T7, TbPEX11 array peptides of BS3 (aa 139-159) (Trypanosoma brucei); assay: as above
T7 sequence (peptide): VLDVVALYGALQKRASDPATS

[8] = molecular target: GST-TbPEX19 (Trypanosoma brucei); assay: AlphaScreen or HTRF; 30 nM GST-TbPEX19 and 300 nM His6-tagged TbPEX11 peptide in PBS pH 7.4 with 0.5% BSA, room temperature; Nickel-chelate acceptor beads and Glutathione donor beads; GST as negative control; both purified
[9] = molecular target: GST-TbPEX19 (Trypanosoma brucei); assay: pull-down; 200 µg GST-TbPEX19 or GST on Glutathione Agarose 4B beads; 25 µg C-terminally His6-tagged peptide, 2 h at 4°C; PBS washes; eluted with 10 mM reduced glutathione; Coomassie staining and anti-His6 blot; both purified

binding [1]: binds
binding [2]: binds weakly
binding [3]: binds
binding [4]: no binding
Molecule: GAL4 AD-TbPEX19_(1-285aa) (Trypanosoma brucei)

Molecule: GST-TbPEX19 (Trypanosoma brucei)
binding [5]: binds
binding [6]: binds
binding [7]: binds

binding [8]: no binding (tested: 300 nM)
binding [9]: no binding (tested: 25 µg of peptide)
B1: TbPEX11 BS1 peptide, C-terminally His6-tagged (…-GS-His6) (peptide)
peptide: QTDGRDKILKAFSGVFKALGSLDGS

binding [9]: no binding (tested: 25 µg of peptide)
B2: TbPEX11 BS3 peptide, C-terminally His6-tagged (…-GS-His6) (peptide)
peptide: VLDVVALYGALQKRASDPATSGS
